Literature values in US10702537B2, “Devices and methods of treating methamphetamine addiction and medical and behavioral consequences of methamphetamine use and of HIV infection” (Board of Supervisors of Louisiana State University and …, priority 2015, dated 2020).

Conditions: humans; cited from earlier work

O=C1Nc2ccc(Cl)cc2C(c2ccccc2)=NC1O (stereo not shown) [oxazepam, 7-chloro-1,3-dihydro-3-hydroxy-5-phenyl-2H-1,4-benzodiazepin-2-one]
rate of absorption compared to alprazolam: more slowly absorbed
